Here are results for 33 targets from the supplement of paper PMC10849652.

By UniProt entry, the sequences of proteins in these tests, tags left out. Where a name states a change or a piece, a line headed by the entry shows the natural chain unless it says otherwise.
UniProt Q96LB3: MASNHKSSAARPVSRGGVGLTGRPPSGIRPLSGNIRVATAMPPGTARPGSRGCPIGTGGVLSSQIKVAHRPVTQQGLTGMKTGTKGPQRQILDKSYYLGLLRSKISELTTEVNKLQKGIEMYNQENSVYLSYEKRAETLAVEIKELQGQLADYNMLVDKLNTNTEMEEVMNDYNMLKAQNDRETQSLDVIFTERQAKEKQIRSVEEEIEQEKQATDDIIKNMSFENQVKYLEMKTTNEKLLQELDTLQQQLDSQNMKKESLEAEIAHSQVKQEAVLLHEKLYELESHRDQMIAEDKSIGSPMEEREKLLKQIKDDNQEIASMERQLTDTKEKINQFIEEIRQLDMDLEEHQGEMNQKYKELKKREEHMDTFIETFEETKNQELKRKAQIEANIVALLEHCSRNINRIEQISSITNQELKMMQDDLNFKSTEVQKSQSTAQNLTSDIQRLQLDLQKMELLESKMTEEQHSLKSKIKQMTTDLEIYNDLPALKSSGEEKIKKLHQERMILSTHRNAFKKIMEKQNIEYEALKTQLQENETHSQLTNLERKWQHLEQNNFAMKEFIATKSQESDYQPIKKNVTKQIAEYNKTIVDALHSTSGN
UniProt Q9Y4L1: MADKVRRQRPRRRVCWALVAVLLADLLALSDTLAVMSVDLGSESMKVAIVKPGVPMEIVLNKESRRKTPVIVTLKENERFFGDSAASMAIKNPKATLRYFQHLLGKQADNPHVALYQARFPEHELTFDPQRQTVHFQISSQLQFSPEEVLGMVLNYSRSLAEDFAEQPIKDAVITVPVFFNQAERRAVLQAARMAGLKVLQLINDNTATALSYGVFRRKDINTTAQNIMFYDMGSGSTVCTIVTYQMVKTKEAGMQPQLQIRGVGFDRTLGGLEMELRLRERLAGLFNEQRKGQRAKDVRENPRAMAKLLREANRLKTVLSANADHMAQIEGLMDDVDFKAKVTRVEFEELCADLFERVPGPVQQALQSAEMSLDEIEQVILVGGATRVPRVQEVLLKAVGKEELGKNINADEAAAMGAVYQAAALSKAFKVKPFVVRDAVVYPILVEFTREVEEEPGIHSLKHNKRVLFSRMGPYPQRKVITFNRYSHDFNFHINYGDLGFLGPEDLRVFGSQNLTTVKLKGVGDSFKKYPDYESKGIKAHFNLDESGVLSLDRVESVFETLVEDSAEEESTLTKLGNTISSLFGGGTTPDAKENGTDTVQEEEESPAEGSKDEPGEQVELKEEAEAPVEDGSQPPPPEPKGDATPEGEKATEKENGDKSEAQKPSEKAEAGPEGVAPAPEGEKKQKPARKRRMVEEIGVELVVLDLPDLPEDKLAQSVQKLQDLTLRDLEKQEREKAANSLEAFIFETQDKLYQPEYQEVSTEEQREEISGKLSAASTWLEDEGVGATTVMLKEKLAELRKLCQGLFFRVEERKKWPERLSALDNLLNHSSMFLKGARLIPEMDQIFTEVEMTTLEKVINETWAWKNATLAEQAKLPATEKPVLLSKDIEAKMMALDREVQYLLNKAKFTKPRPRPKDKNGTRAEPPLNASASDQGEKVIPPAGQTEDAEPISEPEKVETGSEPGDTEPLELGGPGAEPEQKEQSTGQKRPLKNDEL
UniProt P48735: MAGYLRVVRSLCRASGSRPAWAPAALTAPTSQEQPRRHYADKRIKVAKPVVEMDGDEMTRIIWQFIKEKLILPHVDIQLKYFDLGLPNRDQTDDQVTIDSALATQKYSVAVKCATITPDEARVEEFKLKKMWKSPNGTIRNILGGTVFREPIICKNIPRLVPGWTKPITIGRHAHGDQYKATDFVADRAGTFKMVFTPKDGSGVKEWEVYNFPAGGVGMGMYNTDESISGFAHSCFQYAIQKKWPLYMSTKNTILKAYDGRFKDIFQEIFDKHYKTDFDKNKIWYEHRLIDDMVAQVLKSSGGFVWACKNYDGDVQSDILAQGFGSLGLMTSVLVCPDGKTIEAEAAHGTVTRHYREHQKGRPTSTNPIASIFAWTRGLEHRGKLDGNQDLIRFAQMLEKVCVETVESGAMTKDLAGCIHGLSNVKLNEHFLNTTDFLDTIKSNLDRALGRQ
UniProt Q9BT40: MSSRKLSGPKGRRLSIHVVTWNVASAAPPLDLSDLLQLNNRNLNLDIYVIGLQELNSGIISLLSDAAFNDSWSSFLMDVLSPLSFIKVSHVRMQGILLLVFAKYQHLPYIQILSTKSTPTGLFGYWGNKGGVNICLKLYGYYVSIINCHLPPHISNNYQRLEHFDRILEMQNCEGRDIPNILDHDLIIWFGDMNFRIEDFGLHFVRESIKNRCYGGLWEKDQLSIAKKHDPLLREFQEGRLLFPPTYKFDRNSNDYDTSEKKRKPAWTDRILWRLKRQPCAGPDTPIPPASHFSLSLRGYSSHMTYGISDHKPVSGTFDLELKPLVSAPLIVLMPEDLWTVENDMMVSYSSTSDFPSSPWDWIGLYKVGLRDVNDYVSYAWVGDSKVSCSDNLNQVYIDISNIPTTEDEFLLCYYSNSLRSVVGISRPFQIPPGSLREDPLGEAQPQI
UniProt Q8N201, whole entry, looked up: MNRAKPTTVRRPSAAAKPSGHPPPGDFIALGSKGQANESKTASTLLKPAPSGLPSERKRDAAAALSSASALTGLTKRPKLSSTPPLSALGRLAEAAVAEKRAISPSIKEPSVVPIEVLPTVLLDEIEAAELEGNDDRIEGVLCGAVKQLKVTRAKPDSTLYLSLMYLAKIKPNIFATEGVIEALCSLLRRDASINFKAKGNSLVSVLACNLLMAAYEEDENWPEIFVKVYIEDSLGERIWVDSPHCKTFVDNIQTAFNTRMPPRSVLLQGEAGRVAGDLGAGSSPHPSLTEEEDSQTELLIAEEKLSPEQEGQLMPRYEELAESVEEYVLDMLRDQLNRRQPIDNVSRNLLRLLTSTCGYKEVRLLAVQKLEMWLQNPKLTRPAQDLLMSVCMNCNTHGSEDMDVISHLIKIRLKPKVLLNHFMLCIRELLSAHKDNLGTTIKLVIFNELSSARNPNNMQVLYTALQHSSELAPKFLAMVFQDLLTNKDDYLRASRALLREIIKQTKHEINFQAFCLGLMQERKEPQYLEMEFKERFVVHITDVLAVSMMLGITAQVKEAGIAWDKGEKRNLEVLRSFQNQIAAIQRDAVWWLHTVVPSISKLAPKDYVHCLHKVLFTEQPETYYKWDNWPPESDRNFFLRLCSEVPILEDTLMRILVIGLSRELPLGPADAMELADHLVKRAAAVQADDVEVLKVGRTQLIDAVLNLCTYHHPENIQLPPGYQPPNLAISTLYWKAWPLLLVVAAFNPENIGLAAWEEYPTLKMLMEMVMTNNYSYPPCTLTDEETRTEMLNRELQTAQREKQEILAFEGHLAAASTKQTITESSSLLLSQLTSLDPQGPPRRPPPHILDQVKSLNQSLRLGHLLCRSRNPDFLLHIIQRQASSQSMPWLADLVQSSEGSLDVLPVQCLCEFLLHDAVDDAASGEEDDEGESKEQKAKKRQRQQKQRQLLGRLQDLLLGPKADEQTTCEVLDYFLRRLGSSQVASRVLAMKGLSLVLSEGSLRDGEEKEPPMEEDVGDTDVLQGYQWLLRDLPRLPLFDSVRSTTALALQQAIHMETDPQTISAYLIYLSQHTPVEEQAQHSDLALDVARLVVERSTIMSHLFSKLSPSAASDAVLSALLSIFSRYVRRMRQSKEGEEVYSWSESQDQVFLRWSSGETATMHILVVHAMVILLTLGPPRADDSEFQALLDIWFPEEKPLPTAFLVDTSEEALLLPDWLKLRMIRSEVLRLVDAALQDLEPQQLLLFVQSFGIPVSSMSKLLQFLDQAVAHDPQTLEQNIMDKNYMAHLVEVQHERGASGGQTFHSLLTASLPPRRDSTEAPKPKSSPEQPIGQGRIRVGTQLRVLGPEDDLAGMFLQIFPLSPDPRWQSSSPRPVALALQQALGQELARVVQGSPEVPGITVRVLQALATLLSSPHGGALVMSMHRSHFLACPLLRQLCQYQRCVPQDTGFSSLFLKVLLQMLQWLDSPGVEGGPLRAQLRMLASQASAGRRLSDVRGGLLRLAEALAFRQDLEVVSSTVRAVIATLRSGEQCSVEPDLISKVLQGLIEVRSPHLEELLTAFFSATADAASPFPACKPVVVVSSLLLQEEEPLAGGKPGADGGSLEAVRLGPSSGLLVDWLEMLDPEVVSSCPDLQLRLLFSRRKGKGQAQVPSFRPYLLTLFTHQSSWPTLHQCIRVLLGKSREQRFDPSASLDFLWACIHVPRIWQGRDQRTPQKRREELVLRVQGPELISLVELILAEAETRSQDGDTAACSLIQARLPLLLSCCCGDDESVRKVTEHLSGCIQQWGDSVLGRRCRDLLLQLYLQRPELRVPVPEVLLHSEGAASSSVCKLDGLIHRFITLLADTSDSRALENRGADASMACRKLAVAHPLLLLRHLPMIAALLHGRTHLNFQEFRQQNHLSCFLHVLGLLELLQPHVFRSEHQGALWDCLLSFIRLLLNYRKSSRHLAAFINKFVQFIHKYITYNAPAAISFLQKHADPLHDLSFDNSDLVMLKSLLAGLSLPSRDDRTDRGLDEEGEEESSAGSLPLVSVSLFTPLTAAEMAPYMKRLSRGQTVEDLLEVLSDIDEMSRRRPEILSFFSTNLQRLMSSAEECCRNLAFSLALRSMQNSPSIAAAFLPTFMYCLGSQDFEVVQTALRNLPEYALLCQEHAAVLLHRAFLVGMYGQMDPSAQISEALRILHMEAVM
UniProt Q13123, whole entry, looked up: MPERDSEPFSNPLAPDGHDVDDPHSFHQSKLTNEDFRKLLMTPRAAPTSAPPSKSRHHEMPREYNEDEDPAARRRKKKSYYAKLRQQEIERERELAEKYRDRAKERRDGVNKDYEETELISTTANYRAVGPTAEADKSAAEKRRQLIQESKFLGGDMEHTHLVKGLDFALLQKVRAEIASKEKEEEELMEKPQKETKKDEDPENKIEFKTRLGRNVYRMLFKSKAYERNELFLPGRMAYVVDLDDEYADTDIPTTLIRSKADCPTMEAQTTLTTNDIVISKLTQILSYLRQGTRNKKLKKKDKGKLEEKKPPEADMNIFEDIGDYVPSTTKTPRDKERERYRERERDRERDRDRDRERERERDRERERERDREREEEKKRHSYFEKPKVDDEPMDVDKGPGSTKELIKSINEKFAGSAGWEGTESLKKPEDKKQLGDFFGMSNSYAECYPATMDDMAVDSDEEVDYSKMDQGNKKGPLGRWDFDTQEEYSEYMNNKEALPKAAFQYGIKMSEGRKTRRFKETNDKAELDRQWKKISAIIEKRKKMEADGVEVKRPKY
UniProt Q13418: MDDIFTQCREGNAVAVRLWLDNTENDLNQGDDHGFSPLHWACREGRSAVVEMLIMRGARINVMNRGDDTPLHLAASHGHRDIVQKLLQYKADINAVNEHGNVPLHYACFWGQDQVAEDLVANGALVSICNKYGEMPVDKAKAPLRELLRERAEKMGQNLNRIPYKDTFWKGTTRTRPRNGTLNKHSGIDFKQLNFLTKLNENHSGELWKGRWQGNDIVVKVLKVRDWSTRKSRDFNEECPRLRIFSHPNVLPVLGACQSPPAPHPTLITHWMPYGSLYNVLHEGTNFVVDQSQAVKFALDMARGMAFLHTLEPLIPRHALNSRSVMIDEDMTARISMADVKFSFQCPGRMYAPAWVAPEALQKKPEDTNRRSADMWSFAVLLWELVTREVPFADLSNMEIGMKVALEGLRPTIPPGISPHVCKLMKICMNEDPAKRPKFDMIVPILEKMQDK
UniProt O60921: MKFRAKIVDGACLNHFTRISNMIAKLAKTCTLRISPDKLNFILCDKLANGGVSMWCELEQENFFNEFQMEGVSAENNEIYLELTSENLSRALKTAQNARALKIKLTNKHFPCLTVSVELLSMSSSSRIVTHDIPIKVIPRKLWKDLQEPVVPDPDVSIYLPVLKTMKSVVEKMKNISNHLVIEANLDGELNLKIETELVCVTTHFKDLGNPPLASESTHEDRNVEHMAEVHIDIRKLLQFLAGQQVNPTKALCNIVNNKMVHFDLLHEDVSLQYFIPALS
UniProt O43837: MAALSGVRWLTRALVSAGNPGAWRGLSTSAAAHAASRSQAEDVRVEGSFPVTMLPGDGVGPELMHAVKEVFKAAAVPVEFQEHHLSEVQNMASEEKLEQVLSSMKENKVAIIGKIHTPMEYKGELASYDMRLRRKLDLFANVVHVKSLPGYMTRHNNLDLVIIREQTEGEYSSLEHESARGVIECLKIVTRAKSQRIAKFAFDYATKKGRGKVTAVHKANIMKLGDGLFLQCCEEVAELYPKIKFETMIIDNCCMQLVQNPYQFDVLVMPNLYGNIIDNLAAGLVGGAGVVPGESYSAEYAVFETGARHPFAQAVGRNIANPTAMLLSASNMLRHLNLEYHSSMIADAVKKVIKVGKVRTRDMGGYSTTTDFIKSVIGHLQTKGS
UniProt Q9NX55: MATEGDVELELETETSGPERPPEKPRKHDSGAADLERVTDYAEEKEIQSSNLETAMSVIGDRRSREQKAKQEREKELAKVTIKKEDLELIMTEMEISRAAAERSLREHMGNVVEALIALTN

Some of the results follow.

Compound in one experiment: Cc1cn(-c2cc(NC(=O)c3ccc(C)c(Nc4nccc(-c5cccnc5)n4)c3)cc(C(F)(F)F)c2)cn1 [nilotinib]
In words: log2 fold change, soluble protein after heating vs DMSO (PISA); higher = thermal stabilisation; K562 lysate, 10 uM; active = over 0.2 and 3.5 SD of the protein, either way, in both replicates (recomputed). The gist of the method:
(§1)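 Log-two fold change in thermal stability relative to solvent controls is reported from duplicates. For each sample, crude K562 extract from dounce-homogenised pellets in PBS pH 7.4 with 1 mM MgCl2, at 1 mg/mL protein, was treated with 10 μM compound for 30 min. Aliquots heated for 3 min across 48°C-58°C were pooled, brought to 0.5% NP-40 at 4°C and cleared at 21,000xg for 90 min. The supernatant was quantified by TMTpro 16plex LC-MS/MS with channel sums equalised.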
For the target IFT74 (UniProt Q96LB3), the log2 fold change was inactive: 0.064.
In the case of INPP4A (UniProt Q96PE3), the log2 fold change was inactive: 0.012.
HYOU1 (UniProt Q9Y4L1): the log2 fold change was inactive: 0.012.
Consider IDH2 (UniProt P48735), for which the log2 fold change was inactive: 0.013.
On to INPP5K (UniProt Q9BT40), for which the log2 fold change was inactive: -0.134.
As to INTS1 (UniProt Q8N201), the log2 fold change is inactive: -0.041.
Turning to IK (UniProt Q13123), the log2 fold change is inactive: -0.066.
Consider ILK (UniProt Q13418), for which the log2 fold change is inactive: 0.01.
As to HUS1 (UniProt O60921), the log2 fold change was inactive: 0.003.

Compound in a further experiment: Cc1nc(Nc2n[nH]c3c2CN(C(=O)N[C@H](CN(C)C)c2ccccc2)C3(C)C)c2sccc2n1
The description is as above. The method in brief: as §1
For IDH3A (UniProt P50213), the log2 fold change was inactive: 0.023.
Turning to IGSF3 (UniProt O75054), the log2 fold change is inactive: -0.064.
In the case of ILKAP (UniProt Q9H0C8), the log2 fold change is inactive: -0.01.
Turning to ICAM1 (UniProt P05362), the log2 fold change was inactive: 0.021.
For the target IDH3B (UniProt O43837), the log2 fold change is inactive: -0.017.
For the target IGSF8 (UniProt Q969P0), the log2 fold change was inactive: -0.106.
In the case of ILVBL (UniProt A1L0T0), the log2 fold change was inactive: 0.066.
As to IDE, A0A3B3ISG5, the log2 fold change was inactive: -0.001.
Regarding ILF2 (UniProt Q12905), the log2 fold change was inactive: 0.007.
Consider HTATIP2 isoform 3 (UniProt Q9BUP3), for which the log2 fold change was inactive: 0.004.
On the same count and under the same terms, the same measure for IGF2BP1 (UniProt Q9NZI8): inactive: -0.005.
In the case of HYOU1 (UniProt J3QL06), the log2 fold change was inactive: 0.064.
Still for that read-out and setting: with IMPA1 isoform 3 (UniProt P29218) the figure was inactive: 0.021; with IDH1 (UniProt O75874), inactive: -0.001.
In the case of HUWE1 (UniProt Q7Z6Z7), the log2 fold change was inactive: 0.004.
Take HSPA8 (UniProt P11142): the log2 fold change was inactive: 0.002.
With IL10RB (UniProt Q08334), the log2 fold change is inactive: -0.035.
As for IDH3G (UniProt P51553), the log2 fold change was inactive: -0.032.
In the case of ICAM5 (UniProt Q9UMF0), the log2 fold change is inactive: 0.055.
Regarding IBA57 (UniProt Q5T440), the log2 fold change is inactive: -0.007.
Still for that read-out and setting: the same measure for IGBP1 (UniProt P78318): inactive: -0.016.
On the same count and under the same terms, the same measure for IFI30 (UniProt P13284): inactive: -0.002; for HYPK (UniProt Q9NX55): inactive: -0.032; for IFITM3 (UniProt Q01628): inactive: 0.055.
Same read-out and setting: with IFT74 (UniProt Q96LB3) the figure was inactive: 0.001.
As for INPP4A (UniProt Q96PE3), the log2 fold change is inactive: -0.021.
Take HYOU1 (UniProt Q9Y4L1): the log2 fold change is inactive: -0.002.
Turning to IDH2 (UniProt P48735), the log2 fold change was inactive: -0.013.
On to INPP5K (UniProt Q9BT40), for which the log2 fold change is inactive: 0.148.
Regarding INTS1 (UniProt Q8N201), the log2 fold change was inactive: 0.012.
In the case of IK (UniProt Q13123), the log2 fold change is inactive: 0.002.
As to ILK (UniProt Q13418), the log2 fold change is inactive: -0.066.
In the case of HUS1 (UniProt O60921), the log2 fold change is inactive: 0.03.

Compound in another experiment: Cc1nc(Nc2ncc(C(=O)Nc3c(C)cccc3Cl)s2)cc(N2CCN(CCO)CC2)n1 [dasatinib]
Described as above. The gist of the method: as §1
For the target IDH3A (UniProt P50213), the log2 fold change is inactive: -0.039.
On to IGSF3 (UniProt O75054), for which the log2 fold change is inactive: 0.026.
With ILKAP (UniProt Q9H0C8), the log2 fold change was inactive: 0.025.
As for ICAM1 (UniProt P05362), the log2 fold change is inactive: -0.002.
In the case of IDH3B (UniProt O43837), the log2 fold change was inactive: 0.003.
For the target IGSF8 (UniProt Q969P0), the log2 fold change was inactive: 0.
For the target ILVBL (UniProt A1L0T0), the log2 fold change is inactive: -0.014.
IDE, A0A3B3ISG5: the log2 fold change is inactive: 0.011.
Regarding ILF2 (UniProt Q12905), the log2 fold change is inactive: 0.003.
For HTATIP2 isoform 3 (UniProt Q9BUP3), the log2 fold change was inactive: 0.031.
Consider IGF2BP1 (UniProt Q9NZI8), for which the log2 fold change was inactive: -0.061.
On the same count and under the same terms, the same measure for HYOU1 (UniProt J3QL06): inactive: -0.232; for IMPA1 isoform 3 (UniProt P29218): inactive: -0.002; for IDH1 (UniProt O75874): inactive: -0.043.
Take HUWE1 (UniProt Q7Z6Z7): the log2 fold change was inactive: -0.011.
Take HSPA8 (UniProt P11142): the log2 fold change was inactive: 0.013.
Take IL10RB (UniProt Q08334): the log2 fold change is inactive: 0.068.
In the case of IDH3G (UniProt P51553), the log2 fold change was inactive: -0.012.
With ICAM5 (UniProt Q9UMF0), the log2 fold change is inactive: 0.054.
In the case of IBA57 (UniProt Q5T440), the log2 fold change was inactive: 0.003.
IGBP1 (UniProt P78318): the log2 fold change is inactive: 0.035.
Turning to IFI30 (UniProt P13284), the log2 fold change is inactive: 0.057.
On the same count and under the same terms, with HYPK (UniProt Q9NX55) the figure was inactive: 0.006; with IFITM3 (UniProt Q01628), inactive: 0.049; with IFT74 (UniProt Q96LB3), inactive: -0.001.
Take INPP4A (UniProt Q96PE3): the log2 fold change was inactive: 0.028.
In the case of HYOU1 (UniProt Q9Y4L1), the log2 fold change was inactive: -0.004.
On to IDH2 (UniProt P48735), for which the log2 fold change is inactive: -0.152.
With INPP5K (UniProt Q9BT40), the log2 fold change was inactive: 0.038.
For the target INTS1 (UniProt Q8N201), the log2 fold change is inactive: -0.087.
Same read-out and setting: the same measure for IK (UniProt Q13123): inactive: 0.017; for ILK (UniProt Q13418): inactive: 0.071; for HUS1 (UniProt O60921): inactive: 0.019.
